Data as given in PubChem BioAssay AID686943 (Drosophila RNAi Screening Center, 2013)

Test: 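Search across the genome for regulators of signalling from receptor tyrosine kinase to ERK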 (primary screen)
Cells: Drosophila S2R+ haemocyte-like cells expressing YFP-tagged ERK (Rolled)
Reagents: long dsRNA against Drosophila genes
Treatment: insulin stimulation versus unstimulated cells; dose and duration not given
Measured: 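Antibody staining for doubly phosphorylated ERK divided by ERK-YFP signal, as plate z-scores, in insulin-treated and untreated cells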
Scale: replicate 1, z-score of dpERK with insulin and replicate 2, z-score of dpERK with insulin: higher = more active ERK per ERK-YFP after insulin; replicate 1, z-score of dpERK under basal conditions: higher = more basal active ERK per ERK-YFP; replicate 1, z-score of ERK-YFP with insulin: higher = more YFP-tagged ERK signal
In all, the deposit lists about 23,000 reagents; shown is a random part of those that have a named target and a result. 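Extra replicates exist only for a retested subset of genes; insulin dose and duration not given; both raised and lowered dpERK matter.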 A plus sign joins genes that one reagent is predicted to hit. The record does not give: the amount of reagent, the time to read-out.

no.	gene knocked down	amplicon	replicate 1, z-score of dpERK with insulin	replicate 2, z-score of dpERK with insulin	replicate 1, z-score of dpERK under basal conditions	replicate 1, z-score of ERK-YFP with insulin
1	pot (papillote)	DRSC19850	0.41	-0.85	0.43	0.12
2	CG11168	DRSC14292	0.13	0.8	0.05	0.32
3	Atg10 + CG12822	DRSC06796	-0.5	-0.09	-1.71	-0.16
4	Cdk4 (Cyclin-dependent kinase 4)	DRSC07358	-2.75	-2.56	-2.97	-5.33
5	TTLL3A (Tubulin tyrosine ligase-like 3A)	DRSC02143	0.4	0.08	0.22	-0.53
6	CG2812	DRSC04319	-1.11	-0.21	-0.3	1.28
7	clos (closca)	DRSC06240	0.86	0.04	-0.23	0.8
8	clos (closca)	DRSC06241	1.45	0.14	-0.25	0.51
9	clos (closca)	DRSC06778	0.31	-0.38	0.5	0.17
10	clos (closca)	DRSC21857	0.59	1.4	0.19	-0.41
11	clos (closca)	DRSC22942	0.24	0.3	-0.6	-0.11
12	Alk (Anaplastic lymphoma kinase)	DRSC05918	1.24	0.66	-0.08	0.67
13	esc (extra sexcombs)	DRSC03529	-0.35	0.16	-0.47	0.67
14	GatB (Glutamyl-tRNA amidotransferase, subunit B)	DRSC15807	0.08	-0.21	-1.11	0.35
15	Eip93F (Ecdysone-induced protein 93F)	DRSC13527	-0.1	-0.35	0.55	-0.79
16	Eip93F (Ecdysone-induced protein 93F)	DRSC16661	0.42	-0.01	-1.65	-0.25
17	Eip93F (Ecdysone-induced protein 93F)	DRSC21754	0.61	1.64	-0.95	1.31
18	Mpv17 (Mitochondrial inner membrane protein MPV17)	DRSC17198	0.73	0.22	-0.28	0.18
19	geko	DRSC10044	0.03	-0.4	0.06	-0.59
20	geko	DRSC10045	-0.05	-0.27	-0.45	0.25
21	Or98a (Odorant receptor 98a)	DRSC16774	-0.04	0	-0.31	0.11
22	CG15347	DRSC18031	0.55	0	-0.82	0.08
23	CG14488	DRSC06460	-0.27	0.78	-3.36	0.64
24	CG8419	DRSC03087	-1.17	0.19	0.5	0.03
25	Jon65Aii (Jonah 65Aii)	DRSC10665	-0.17	-0.22	-0.34	0.6
26	CG11360	DRSC17124	0.42	0.87	-0.89	-0.56
27	CG11360	DRSC17134	0.69	1.52	-0.12	0.02
28	CG33062	DRSC22195	-0.1	-0.25	-0.73	0.4
29	CG43295	DRSC09416	0.1	-0.39	0.47	0.38
30	SLIRP2 (SRA stem-loop interacting RNA binding protein 2)	DRSC16363	-0.03	-0.46	-0.07	-0.28
31	Smyd3 (SET and MYND domain containing, class 3)	DRSC17744	1.16	-0.59	0.48	-0.3
32	TotB (Turandot B)	DRSC15842	-0.71	-0.06	-0.22	0.48
33	dlp (dally-like)	DRSC10281	0.47	0.25	-3.35	2.27
34	dlp (dally-like)	DRSC10472	-0.88	-0.99	0.21	0.64
35	CG17687	DRSC10279	-0.67	0.02	0.83	0.51
36	c(2)M (crossover suppressor on 2 of Manheim)	DRSC01922	0.62	0.54	-1.49	0.14
37	CG33080	DRSC18080	-1.02	-0.13	1.81	0.19
38	CG33080	DRSC18081	-0.21	-0.01	0.41	0.04
39	CG33080	DRSC18285	0.1	1.03	-1.58	-0.28
40	Sgs3 (Salivary gland secretion 3)	DRSC11280	-0.35	0.03	-0.2	0.51
41	dod (dodo)	DRSC20577	0.71	0.18	1.12	-0.54
42	CG10959	DRSC17769	-0.32	0.12	-0.7	0.41
43	l(2)k05819 (lethal (2) k05819)	DRSC00826	0.51	0.18	0.08	0.19
44	x16 (x16 splicing factor)	DRSC00960	2.08	-0.21	-0.94	-0.89
45	x16 (x16 splicing factor)	DRSC03638	0.11	0.92	-0.08	1.15
46	alt (aluminum tubes)	DRSC15315	0.22	0.39	-0.66	-0.9
47	CG34393	DRSC00419	0.03	-0.03	0.94	1
48	CG34393	DRSC00710	-0.07	0.54	1.04	1.62
49	CG12523	DRSC09895	0.18	-0.09	1.1	0.2
50	Pp1-13C (Protein phosphatase 1 at 13C)	DRSC20269	-1.54	-1.95	2.96	-3.15
51	CG15543	DRSC15081	0.42	0.2	-0.82	-0.08
52	tutl (turtle)	DRSC00441	0.14	0.63	-0.51	-0.54
53	tutl (turtle)	DRSC00442	1.24	0.4	2.19	-0.43
54	tutl (turtle)	DRSC00443	-1.49	0.84	-0.21	-0.67
55	CG17078	DRSC00484	-1.06	-0.73	1.18	0.54
56	CG17715	DRSC11950	0.68	1.23	1.11	-0.42
57	DIP-epsilon (Dpr-interacting protein epsilon)	DRSC00932	1.61	1.94	0.25	-0.54
58	DIP-epsilon (Dpr-interacting protein epsilon)	DRSC02313	-0.08	0.47	-2.13	0.65
59	Cyp317a1 (Cytochrome P450 317a1)	DRSC07366	0.18	0.26	-0.12	-0.42
60	Ets21C (Ets at 21C)	DRSC00751	-0.26	-0.45	-1.52	1.59
61	CG33791 + CG12105 + CG18170	DRSC08387	0.29	-0.46	-0.57	0.05
62	Polr3H (RNA polymerase III subunit H)	DRSC10817	0.99	0.25	-0.09	0.22
63	link	DRSC06368	3.19	2.25	0.99	-6.53
64	Grip128	DRSC20167	0.51	0.28	1.29	-0.08
65	Hr51 (Hormone receptor 51)	DRSC06627	-0.09	-0.31	1.35	0.35
66	Hr51 (Hormone receptor 51)	DRSC22829	0.82	0.4	1.52	0.04
67	CG14406	DRSC19592	0.25	-0.56	0.2	0.14
68	Elys	DRSC19571	-0.53	-0.78	-1.25	-1.58
69	NKAIN (Na,K-ATPase Interacting)	DRSC04531	-0.35	-0.23	1.6	0.24
70	NKAIN (Na,K-ATPase Interacting)	DRSC22470	0.43	0.5	-0.39	-0.09
71	CG6614	DRSC02974	-0.04	-0.16	0.68	0.79
72	Etf-QO (Electron transfer flavoprotein-ubiquinone oxidoreductase)	DRSC06111	-0.04	0.03	-0.54	0.51
73	CG6785	DRSC02993	-0.82	-0.64	0.68	-0.82

A run of entries taken from the entries so far:
no.	gene knocked down	amplicon	replicate 1, z-score of dpERK with insulin	replicate 2, z-score of dpERK with insulin	replicate 1, z-score of dpERK under basal conditions	replicate 1, z-score of ERK-YFP with insulin
35	CG17687	DRSC10279	-0.67	0.02	0.83	0.51
36	c(2)M (crossover suppressor on 2 of Manheim)	DRSC01922	0.62	0.54	-1.49	0.14
37	CG33080	DRSC18080	-1.02	-0.13	1.81	0.19
